Test results: patent US20240398790A1 (ABBVIE INC., priority 2021, published 2024)

Tested on: adult subjects with active ankylosing spondylitis (AS) who had an inadequate response to biologic disease-modifying anti-rheumatic drug therapy (bDMARD-IR)
Test: SELECT AXIS 2 Study 1, safety up to Week 14
Conditions: 15 mg QD, percentage based upon the FAS

CC[C@@H]1CN(C(=O)NCC(F)(F)F)C[C@@H]1c1cnc2cnc3[nH]ccc3n12 [upadacitinib, (3S,4R)-3-ethyl-4-(3H-imidazo[1,2-a]pyrrolo[2,3-e]pyrazin-8-yl)-N-(2,2,2-trifluoroethyl)pyrrolidine-1-carboxamide]
Prematurely Discontinued Study Drug by Week 14, %: (2.4) %
Prematurely Discontinued Study Drug by Week 14, primary reason Lack of Efficacy, %: (0.5) %
